Measured values published in PubChem BioAssay AID2685 (National Center for Advancing Translational Sciences (NCATS), 2010).
Some of the results follow. Shown are side measurements of this screen, not its main read-out; they come without a call. Most of these compounds were active or inconclusive in the main read-out, so they are no random draw. Words in brackets tell the shape of the fitted curve; partial curves, single points and poor fits give uncertain potencies.

Test: qHTS Assay for Lipid Storage Modulators in Drosophila S3 Cells;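 on cell number change: cells counted by Cell Tracker Red CMTPX staining in the red channel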
Conditions: BODIPY lipid droplet fluorescence, 18-24 h; for cell number change: measured here: cell count max response, cells fed with added oleic acid
How it was run: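 Drosophila S3 cells loaded with oleic acid (400 uM, as added) and compounds at several concentrations; lipid droplets imaged by 488-nm laser-scanning cytometry, 500–530 nm intensity and object ratio to cell channel. Percent activity normalized to 20 uM Triacsin C.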

[1] = measured here: lipid fluorescence (Fed channel) AC50, cells fed with added oleic acid
[2] = measured here: cell number channel AC50, cells fed with added oleic acid

Cc1cccc(-n2cnc3cc(C(=O)N4CCc5ccccc54)ccc32)c1
cell number change: -13.8%
AC50 [1]: 23.1 µM [falling, partial curve]

Cn1cccc1/C=N/n1c(-c2ccc(Cl)cc2Cl)n[nH]c1=S
cell number change: -54.9%
AC50 [2]: 32.6 µM [falling, partial curve]

COc1ccc(S(=O)(=O)N(CCc2ccccc2)CC(=O)O)cc1
cell number change: -37.6%
AC50 [2]: 3.26 µM [falling, partial curve]
AC50 [1]: 16.4 µM [falling, single point]

Cc1oc2cc3oc(=O)c(CC(=O)NCCC(=O)O)c(C)c3cc2c1C
cell number change: 8.33%

O=C(N/N=C/c1cccc([N+](=O)[O-])c1)C1CC(=O)N(c2ccc(Cl)cc2)C1 (stereo unspecified)
AC50 [1]: 11.6 µM [rising, partial curve, poor fit]

COc1ccccc1N1CCN(C(=S)NC(=O)/C=C/c2ccccc2)CC1
cell number change: 0.173%

CCOc1ccc(NC(=O)[C@@H]2CCCN2C(=O)c2cccs2)cc1S(=O)(=O)N1CCCCC1
AC50 [1]: 0.13 µM [falling, full curve, poor fit]

COc1ccc(C=O)cc1OS(=O)(=O)c1ccccc1[N+](=O)[O-]
cell number change: -17.5%
AC50 [1]: 0.259 µM [falling, full curve]

COc1ccc2c(c1)cc(C(=O)N[C@@H](Cc1ccccc1)C(=O)N[C@@H](C)C(=O)O)n2C
cell number change: 3.55%

C/C=C/c1cc(CN2CCN(c3ccccc3)CC2)c(O)c(OC)c1
cell number change: 4.74%

COc1ccc(C(=O)NN2C(=O)C3C(c4ccccc4)C=CC(c4ccccc4)C3C2=O)cc1 (stereo unspecified)
cell number change: -15%
AC50 [1]: 16.4 µM [falling, single point]

COc1ccccc1CN(C)C(=O)CN1CCN(CC(=O)Nc2ccccc2Cl)CC1
cell number change: -22.3%
AC50 [1]: 0.103 µM [rising, full curve, poor fit]

COc1ccc(-c2cc(C(=O)NC3CC3)c3ccccc3n2)cc1
cell number change: 24.4%
AC50 [1]: 4.61 µM [rising, single point]

CCc1ccc(CC2S/C(=C(\C#N)C(C)=O)NC2=O)cc1 (stereo unspecified)
cell number change: -80.6%
AC50 [2]: 18.4 µM [falling, partial curve]

CCCCn1c(N)c(N(CC(C)C)C(=O)c2cc(S(=O)(=O)N3CCCCC3)ccc2C)c(=O)[nH]c1=O
cell number change: -19.1%

COc1ccc(CC(=O)NNS(=O)(=O)c2ccc([N+](=O)[O-])cc2)cc1OC
cell number change: 6.09%
AC50 [1]: 6.51 µM [falling, single point]

COCCCNC(=S)NC1CCCCC1
cell number change: 41.3%
AC50 [2]: 23.1 µM [rising, single point]
AC50 [1]: 23.1 µM [rising, single point]

O=C(CCS(=O)(=O)c1ccccc1)Nc1nc(-c2cccs2)cs1
cell number change: 21.3%
AC50 [1]: 14.6 µM [falling, partial curve]

O=C(CN1C(=O)/C(=C2\SC(=S)N(CCS(=O)(=O)O)C2=O)c2ccccc21)Nc1cccc(Br)c1
cell number change: -5.46%
AC50 [1]: 29.1 µM [falling, single point]

COc1cccc(/C=N/Nc2ccc([N+](=O)[O-])cn2)c1O
cell number change: -61.4%
AC50 [2]: 6.51 µM [falling, full curve]
AC50 [1]: 4.61 µM [falling, full curve]

Cc1ccc(O)c(NC(=S)NC(=O)COc2ccc(Br)cc2)c1
cell number change: -25.5%
AC50 [1]: 29.1 µM [falling, single point]

CCn1c(SCC(=O)N2CCCCC2)nnc1-c1ccc(S(=O)(=O)N2CCN(C)CC2)cc1
cell number change: -7.29%
AC50 [1]: 4.11 µM [falling, single point]

Cc1ccc(C(=O)NC(C)c2ccncc2)o1 (stereo unspecified)
cell number change: 25.9%
AC50 [1]: 0.651 µM [rising, full curve, poor fit]

O=C1OCCC1Sc1nc2ccccc2n1Cc1ccccc1 (stereo unspecified)
cell number change: -17.8%
AC50 [2]: 0.92 µM [falling, full curve, poor fit]

O=C1COc2ccc(-c3n[nH]c(=O)c4ccccc34)cc2N1
cell number change: -74.6%

CN(C)CCNC(=O)CNC(=S)N(Cc1ccccc1)Cc1cccnc1
cell number change: -0.569%
AC50 [1]: 2.31 µM [rising, partial curve, poor fit]

COc1ccc(S(N)(=O)=O)cc1C(=O)NCC(C)(C)N1CCCCC1
cell number change: -3.42%
AC50 [1]: 0.731 µM [falling, full curve, poor fit]

Cc1nnc(NC(=O)C(C)Sc2nnc(CCNC(=O)c3ccccc3F)n2C)s1 (stereo unspecified)
cell number change: 9.83%

COc1cc(OC)cc(N(C(=O)c2snc(C(N)=O)c2N)C(C(=O)NCC2CCCO2)c2ccc(C)o2)c1 (stereo unspecified)
cell number change: 23.9%
AC50 [1]: 4.61 µM [falling, partial curve]

COc1ccc(CN2CCNC(=O)C2CC(=O)NCC2CCOCC2)cc1C (stereo unspecified)
cell number change: 14.2%

Cc1ccc(S(=O)(=O)CCC(=O)OCC(=O)Nc2cc(F)ccc2C)cc1
AC50 [2]: 0.731 µM [rising, partial curve, poor fit]
AC50 [1]: 1.84 µM [rising, partial curve]

COc1ccc(NC(=O)CNC(=O)c2nn(-c3ccc(OC)c(Cl)c3)c(=O)c3ccccc23)c(OC)c1
cell number change: 338%
AC50 [2]: 23.1 µM [rising, partial curve]

COc1cc(C(=O)CCN2CCC(c3ccccc3)C2)cc(OC)c1OC (stereo unspecified)
cell number change: 1.01%
AC50 [1]: 10.3 µM [falling, partial curve, poor fit]

Cc1ccc(CCNC(=O)CCS(=O)(=O)c2ccc(Br)cc2)cc1
cell number change: 23.5%
AC50 [1]: 0.116 µM [rising, full curve, poor fit]

CCOc1cc(/C=C2\N=C(SCC)SC2=O)cc([N+](=O)[O-])c1OC(C)=O
cell number change: 19.9%
AC50 [1]: 6.51 µM [falling, single point]

Cc1ccc(S(=O)(=O)N2CCCCC2)cc1NC(=O)CSc1nnc(N)s1
AC50 [2]: 5.8 µM [rising, single point]
AC50 [1]: 5.8 µM [rising, single point]

CCCn1c(N)c(N(CCOC)C(=O)c2cccc(C(F)(F)F)c2)c(=O)[nH]c1=O
cell number change: -9.21%
AC50 [1]: 35.5 µM [falling, single point]

O=C(Nc1cc(S(=O)(=O)N2CCOCC2)ccc1Cl)c1cc2ccccc2o1
cell number change: 10.7%
AC50 [1]: 6.51 µM [falling, partial curve]

CCOCCCNC(=O)C(c1ccc(OC)cc1)N(Cc1ccc2c(c1)OCO2)C(=O)c1cnccn1 (stereo unspecified)
cell number change: 113%
AC50 [2]: 0.411 µM [rising, single point]
AC50 [1]: 1.84 µM [rising, full curve]

CS(=O)(=O)N1CCN=C1SCc1ccccc1
AC50 [1]: 4.11 µM [rising, full curve]

Cc1cc2cc(CN(CC3CCCO3)C(=S)NCc3ccco3)c(=O)[nH]c2cc1C (stereo unspecified)
cell number change: 13.5%
AC50 [1]: 0.411 µM [rising, full curve, poor fit]

CCCC(=O)Nc1ccc(N2CCN(C(=O)c3cccs3)CC2)cc1
cell number change: 27.1%
AC50 [2]: 0.58 µM [rising, full curve, poor fit]

S=C(NCc1cccnc1)Nc1ccc(Cl)cc1Cl
cell number change: 132%

CCCc1cc(=O)[nH]c(SCC(=O)N(CC)Cc2ccccc2)n1
cell number change: 1.32%
AC50 [2]: 0.231 µM [falling, full curve, poor fit]
AC50 [1]: 0.0058 µM [falling, full curve, poor fit]

CN1CCN(c2ccc(NC(=O)COc3ccc4ccccc4c3)cc2)CC1
cell number change: -15.8%

Cc1ccc(N(CC(=O)NC(C)(C)C)C(=O)CNC(=O)c2cccs2)cc1C
cell number change: 37.1%
AC50 [2]: 0.103 µM [rising, full curve, poor fit]

CC(=O)N(C)C1(c2nnnn2CCOC(=O)Nc2cccc3ccccc23)CCCC1
AC50 [1]: 2.31 µM [rising, partial curve]

O=C1COc2ccc(C(=O)CCl)cc2N1
cell number change: -49.3%
AC50 [2]: 32.6 µM [falling, partial curve, poor fit]
AC50 [1]: 0.0058 µM [falling, full curve, poor fit]

O=c1c2c(nc3cc(-c4ccccc4)[nH]n13)CCC2
cell number change: -4.17%
AC50 [1]: 11.6 µM [falling, partial curve]

CC(C)CNC(=O)c1cc(-c2ccc(Cl)c(Cl)c2)on1
cell number change: 0.789%
AC50 [1]: 3.66 µM [falling, single point]

COc1ccc(-c2oc3cccnc3c2/C=C/c2ccc(OC)c(OC)c2)cc1
cell number change: 1.62%
AC50 [1]: 20.6 µM [falling, single point]

O=C(NCCc1ccccn1)c1ccc2nc(Cc3ccccc3F)oc2c1
cell number change: 4.69%
AC50 [1]: 0.366 µM [falling, full curve]

CNC(=S)N/N=C/c1c(Cl)cccc1Cl
cell number change: 38.9%
AC50 [2]: 5.8 µM [rising, partial curve]

Cc1ccc(C(=O)C2Oc3ccccc3C3CC(c4ccc(C)cc4)=NN23)cc1 (stereo unspecified)
cell number change: 7.27%
AC50 [1]: 14.6 µM [rising, partial curve]

Cc1ccc(CNC(=O)C2CCCCC2C(=O)O)cc1 (stereo unspecified)
cell number change: 5.93%

CN1CCN(c2ccc(NC(=O)COc3ccccc3)cc2Cl)CC1
cell number change: -25.7%

CCCCc1cc(=O)oc2cc(OCC(=O)N3CCc4ccccc43)ccc12
cell number change: 27.2%
AC50 [1]: 6.51 µM [rising, partial curve, poor fit]

O=S(=O)(c1ccccc1)c1nnn2c1nc(NC1CCN(Cc3ccccc3)CC1)c1cc(Cl)ccc12
AC50 [1]: 11.6 µM [falling, partial curve]

O=C(Cn1cnc2ccccc2c1=O)Nc1ccc(N2CCOCC2)cc1
cell number change: 1.49%

COc1ccccc1NS(=O)(=O)c1cc(NC(=O)C(C)C)ccc1N1CCCCC1
cell number change: 47.2%

CCCOc1cc(C)c(S(=O)(=O)n2nnc3ccccc32)cc1C
cell number change: -25.3%
AC50 [1]: 16.4 µM [falling, single point]

COc1ccc(OC)c(/C=N/Nc2nc(C)cc(=O)[nH]2)c1
cell number change: 17.1%
AC50 [1]: 0.651 µM [falling, full curve, poor fit]
